Results are given in words; binding and its absence hold for the method and conditions named. Binding seen in cells or lysates may run through a third protein. Some entries that bind do so weakly or less than the wild type.
Biological target: Y-box binding protein 1 (human (endogenous in A549)) (UniProt P67809)
Assay: co-IP; Pierce Co-immunoprecipitation kit; anti-YBX1 (ab76149) or anti-p53 (sc-126) antibody coupled to AminoLink Plus Coupling Resin; total A549 cell lysate in IP buffer, overnight at 4 °C; eluate analysed by western blot

Question: p53 (from UniProt P04637 1-393) was tested. Which binding did it give?
Answer: The binding was “binds”.

Reference: PMC7067885
